PubChem BioAssay AID652272, Drosophila RNAi Screening Center, 2013
Purpose: 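Genes whose knock-down decreases or increases Hedgehog reporter output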 (primary screen). System: Drosophila clone 8 (Cl8) cells. Knock-down reagent: long dsRNA against Drosophila genes. Measurement: 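Plate reader light from a firefly reporter under a ptc promoter fragment that responds to Hedgehog, with Renilla light as transfection reference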. Reading the numbers: firefly Hh reporter signal: higher = more ptc reporter light; Renilla reference signal: higher = more Renilla control light. Call rule: 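Called a hit if the two-replicate mean z-score lies below -2 or above +3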. Calls: active = hit: reporter lowered or raised; inactive = not a hit.
The deposit covers about 21,000 reagents; this is an unselected part of those that have a named target and a result. In the full data, 503 (2.4%) were called active. 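Raw plate light values, not normalised; calls rest on replicate z-scores that were not deposited; hits include reporter decreases as well as increases.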 A number with no mark means an inactive call. The numbers tell different reagents against one gene apart. A plus sign joins genes that one reagent is predicted to hit. The record does not give: the amount of reagent, the time to read-out.

{"gene": "CG16736", "dsRNA no.": 1, "firefly Hh reporter signal, replicate 1": 83629, "firefly Hh reporter signal, replicate 2": 88209, "Renilla reference signal, replicate 1": 3085, "Renilla reference signal, replicate 2": 2557}
{"gene": "hay (haywire)", "dsRNA no.": 1, "firefly Hh reporter signal, replicate 1": 68145, "firefly Hh reporter signal, replicate 2": 97512, "Renilla reference signal, replicate 1": 3469, "Renilla reference signal, replicate 2": 3574}
{"gene": "CG9083 + Tpc2", "dsRNA no.": 1, "firefly Hh reporter signal, replicate 1": 1.31e5, "firefly Hh reporter signal, replicate 2": 1.53e5, "Renilla reference signal, replicate 1": 4992, "Renilla reference signal, replicate 2": 5372}
{"gene": "CG33299", "dsRNA no.": 1, "firefly Hh reporter signal, replicate 1": 5.31e5, "firefly Hh reporter signal, replicate 2": 2.18e5, "Renilla reference signal, replicate 1": 27120, "Renilla reference signal, replicate 2": 8994}
{"gene": "kar (karmoisin)", "dsRNA no.": 1, "firefly Hh reporter signal, replicate 1": 1.13e5, "firefly Hh reporter signal, replicate 2": 56176, "Renilla reference signal, replicate 1": 4392, "Renilla reference signal, replicate 2": 2707}
{"gene": "Nepl14 (Neprilysin-like 14)", "dsRNA no.": 1, "firefly Hh reporter signal, replicate 1": 4.90e5, "firefly Hh reporter signal, replicate 2": 74561, "Renilla reference signal, replicate 1": 23190, "Renilla reference signal, replicate 2": 2059}
{"gene": "ND-B14.5AL (NADH dehydrogenase (ubiquinone) B14.5 A subunit-like)", "dsRNA no.": 1, "firefly Hh reporter signal, replicate 1": 79437, "firefly Hh reporter signal, replicate 2": 94412, "Renilla reference signal, replicate 1": 3076, "Renilla reference signal, replicate 2": 1060}
{"gene": "CG7049", "dsRNA no.": 1, "firefly Hh reporter signal, replicate 1": 1.21e5, "firefly Hh reporter signal, replicate 2": 66754, "Renilla reference signal, replicate 1": 5175, "Renilla reference signal, replicate 2": 2813}
{"gene": "IP3K1 (Inositol 1,4,5-triphosphate kinase 1)", "dsRNA no.": 1, "firefly Hh reporter signal, replicate 1": 1.21e5, "firefly Hh reporter signal, replicate 2": 77651, "Renilla reference signal, replicate 1": 4567, "Renilla reference signal, replicate 2": 3587}
{"gene": "Arc42 (Activator-recruited cofactor subunit 42)", "dsRNA no.": 1, "firefly Hh reporter signal, replicate 1": 6.81e5, "firefly Hh reporter signal, replicate 2": 1.39e5, "Renilla reference signal, replicate 1": 34563, "Renilla reference signal, replicate 2": 4035}
{"gene": "Arc42 (Activator-recruited cofactor subunit 42)", "dsRNA no.": 2, "firefly Hh reporter signal, replicate 1": 8.73e5, "firefly Hh reporter signal, replicate 2": 2.38e5, "Renilla reference signal, replicate 1": 43699, "Renilla reference signal, replicate 2": 5991}
{"gene": "Arv1 (ACAT-related protein required for viability 1)", "dsRNA no.": 1, "firefly Hh reporter signal, replicate 1": 3.54e5, "Renilla reference signal, replicate 1": 7258}
{"gene": "Trf (TBP-related factor)", "dsRNA no.": 1, "firefly Hh reporter signal, replicate 1": 1.12e5, "firefly Hh reporter signal, replicate 2": 48932, "Renilla reference signal, replicate 1": 3059, "Renilla reference signal, replicate 2": 4837}
{"gene": "CG42724", "dsRNA no.": 1, "firefly Hh reporter signal, replicate 1": 70352, "firefly Hh reporter signal, replicate 2": 32489, "Renilla reference signal, replicate 1": 3281, "Renilla reference signal, replicate 2": 1434}
{"gene": "dao (down and out)", "dsRNA no.": 1, "firefly Hh reporter signal, replicate 1": 1.14e5, "firefly Hh reporter signal, replicate 2": 67437, "Renilla reference signal, replicate 1": 3332, "Renilla reference signal, replicate 2": 6375}
{"gene": "CG33725", "dsRNA no.": 1, "firefly Hh reporter signal, replicate 1": 1.12e5, "firefly Hh reporter signal, replicate 2": 1.77e5, "Renilla reference signal, replicate 1": 3640, "Renilla reference signal, replicate 2": 8176}
{"gene": "Or83c (Odorant receptor 83c)", "dsRNA no.": 1, "firefly Hh reporter signal, replicate 1": 76774, "firefly Hh reporter signal, replicate 2": 1.56e5, "Renilla reference signal, replicate 1": 3318, "Renilla reference signal, replicate 2": 4339}
{"gene": "Klp59C (Kinesin-like protein at 59C)", "dsRNA no.": 1, "firefly Hh reporter signal, replicate 1": 1.15e5, "firefly Hh reporter signal, replicate 2": 67888, "Renilla reference signal, replicate 1": 2741, "Renilla reference signal, replicate 2": 5651}
{"gene": "bin (biniou)", "dsRNA no.": 1, "firefly Hh reporter signal, replicate 1": 36535, "firefly Hh reporter signal, replicate 2": 48066, "Renilla reference signal, replicate 1": 5632, "Renilla reference signal, replicate 2": 3617}
{"gene": "rempA (reduced mechanoreceptor potential A)", "dsRNA no.": 1, "firefly Hh reporter signal, replicate 1": 82305, "firefly Hh reporter signal, replicate 2": 76582, "Renilla reference signal, replicate 1": 1899, "Renilla reference signal, replicate 2": 1913}
{"gene": "CG13559", "dsRNA no.": 1, "firefly Hh reporter signal, replicate 1": 78784, "firefly Hh reporter signal, replicate 2": 69827, "Renilla reference signal, replicate 1": 2294, "Renilla reference signal, replicate 2": 5798}

3 of these entries, reformatted:
| gene | dsRNA no. | firefly Hh reporter signal, replicate 1 | firefly Hh reporter signal, replicate 2 | Renilla reference signal, replicate 1 | Renilla reference signal, replicate 2 |
| --- | --- | --- | --- | --- | --- |
| CG33725 | 1 | 1.12e5 | 1.77e5 | 3640 | 8176 |
| Or83c (Odorant receptor 83c) | 1 | 76774 | 1.56e5 | 3318 | 4339 |
| Klp59C (Kinesin-like protein at 59C) | 1 | 1.15e5 | 67888 | 2741 | 5651 |
